Measured values: PubChem BioAssay AID2417 (National Center for Advancing Translational Sciences (NCATS), 2010)
Out of some 140,000 compounds screened, about 4,300 (3.1%) were called active. This list was built around the results that the source calls inconclusive (neither active nor inactive); the mix of calls is not that of the screen.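 Rule for the calls: active = readout at or below -70, meaning at least 70% loss of cells showing the perinucleolar compartment, a nuclear body marking cancer cells; inconclusive = readout between -30 and a set limit; inactive = the rest.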

Experiment: High Content Assay for Compounds that inhibit the Assembly of the Perinucleolar Compartment;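 note: plate controls were DMSO wells for no effect and camptothecin positive control wells for full effect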
Conditions: PC3M PTB-GFP, PNC prevalence imaging, 16 h; at 10 µM; hits give low values
Procedure, shortened: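 PC3M cells stably expressing PTB-GFP, 750–1000 cells/well, treated 16 h at 37 °C with compound (23 nl of library stock), in duplicate. After paraformaldehyde fixation and Hoechst stain, imaged at 20x; PNC prevalence scored by image analysis.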

Structure (SMILES) | activity change (PNC), negative = inhibition
Cc1cccn2c(=O)c3cc(C(=O)NCC4CCCO4)c(=N)n(CCN4CCOCC4)c3nc12 (configuration not stated) | inconclusive: -48.1%
Cc1c(NC(=O)c2cc(CC(C)C)on2)c(=O)n(-c2ccccc2)n1C | inactive: 1.04%
CCOC(=O)C1CCN(c2c(NCc3ccc(C(=O)NC4CCCC4)cc3)c(=O)c2=O)CC1 | inactive: -13.3%
CC(C)(C)C(=O)NC(=S)Nc1ccc(F)cc1 | inactive: 20.9%
COc1ccccc1NC(=O)CN1C(=O)NC(CC(C)C)C1=O (configuration not stated) | inconclusive: -45%
Cn1c(NN)nc2sc3c(c2c1=O)CC(C)(C)OC3 | inactive: 0.562%
COc1ncnc2c1NC1=C(S2)C(=NCCC(=O)O)CC(C)(C)C1 | inactive: -14.2%
COc1ccc(C(=O)NC(C(=O)NCc2ccccn2)C(C)C)cc1 (configuration not stated) | inactive: 13.1%
CC(O)CNc1nc2sc3c(c2c(=O)n1CCc1ccccc1)CCCCC3 (configuration not stated) | inactive: 25.2%
CC(=O)NCCN=C(C)c1sc2ccccc2c1O | inconclusive: -42.7%
COc1ccc(Nc2c(C)cccc2C)cc1 | inconclusive: -38.6%
Cc1ccc(Nc2nc3ccccc3s2)c(C)c1 | inactive: -26.5%
Cc1sc2c(c1C)c(=O)n(-c1ccccc1)c1nncn21 | inconclusive: -35.9%
COc1cc(C)ccc1OCCOc1cc(C)ccc1Cl | inactive: -11.1%
O=C(/C=C/c1cccc(Cl)c1)Nc1ncccn1 | inactive: 66.5%
CC(C)(C)Cc1nnc(NS(=O)(=O)Cc2ccccc2)s1 | inactive: 43%
COc1ccc(C)c2sc(NC(=O)C3=COCCO3)nc12 | inconclusive: -40.3%
CC(NC(=O)COc1ccc(/C=N/NS(=O)(=O)c2ccccc2)cc1)c1ccccc1 (configuration not stated) | inconclusive: -60.8%
CCCOc1ccc(C2=NNC(c3cccs3)=Nc3ccc(OC)cc32)cc1 | inconclusive: -54.1%
O=C(Nc1ccc(N2CCCC2)cc1)c1cccc(-c2cc3ccccc3oc2=O)c1 | inactive: 7.03%
O=c1c2c3nc4ccccc4nc3n(-c3ccc4c(c3)OCCO4)c2ncn1C1CCCC1 | inconclusive: -31.4%
CC(=O)c1ccc(NC(=O)C2(c3ccccc3)CCOCC2)cc1 | inconclusive: -32.3%
Cc1csc(NC(=O)CSc2nc3sc(C)c(C)c3c(=O)[nH]2)n1 | inconclusive: -41.4%

Retrieved by compound from the entries so far (5):
Structure (SMILES) | activity change (PNC), negative = inhibition
Cc1sc2c(c1C)c(=O)n(-c1ccccc1)c1nncn21 | inconclusive: -35.9%
CC(C)(C)Cc1nnc(NS(=O)(=O)Cc2ccccc2)s1 | inactive: 43%
COc1ccc(C)c2sc(NC(=O)C3=COCCO3)nc12 | inconclusive: -40.3%
COc1ccc(C(=O)NC(C(=O)NCc2ccccn2)C(C)C)cc1 (configuration not stated) | inactive: 13.1%
COc1ccc(Nc2c(C)cccc2C)cc1 | inconclusive: -38.6%

Additional records:

Structure (SMILES) | activity change (PNC), negative = inhibition
Cc1ccc(NC2=C/C(=N\S(=O)(=O)c3cccs3)c3ccccc3C2=O)c(C)c1 | inactive: -22.4%
O=C(Nc1ccc2c(c1)OCCO2)NC12CC3CC(CC(C3)C1)C2 | inconclusive: -33.4%
O=C(Nn1c(SCc2cccc([N+](=O)[O-])c2)nc2ccccc2c1=O)c1ccccc1 | inconclusive: -59.1%
COc1ccc(N2CCN(C(=S)Nc3cc(C)cc(C)c3)CC2)cc1 | active: -106%
N#C/C(=N\Nc1ccc(Cl)cc1)C(=N)N1CCCCC1 | inactive: 20.3%
Cc1c(Cl)cccc1NC(=O)CN1CCC(NC(=O)C2CCCCC2)CC1 | inconclusive: -49.4%
Cc1nn(-c2ccccc2)c2sc(C(=O)N(CC(=O)NC(C)(C)C)Cc3ccco3)cc12 | inconclusive: -46.7%
CC(=O)C1=C(O)C(=O)N(CCCn2ccnc2)C1c1ccc(C)cc1 (configuration not stated) | inactive: 7.43%
COC(=O)c1ccc(NC(=O)C(C)N2C(=O)c3ccccc3C2=O)cc1 (configuration not stated) | inconclusive: -43.5%
CN(C(=O)OCc1ccccc1)C(CC(N)=O)C(=O)O (configuration not stated) | inconclusive: -40.2%
CCOC(=O)c1c(-c2ccccc2)cn2ccccc12 | inactive: 38.1%
CSc1ccc(S(=O)(=O)NCCSc2ccccn2)cc1 | inactive: 28.1%
Cc1ccc2cccc(Oc3ncnc4scc(-c5ccccc5)c34)c2n1 | inconclusive: -52.2%
CCn1c(=O)c2c(n3cnnc13)-c1ccccc1CC21CCCCC1 | inconclusive: -57.6%
O=C(O)c1cccc(-c2ccc(/C=N/NC(=O)c3cccnc3)o2)c1 | active: -83.4%
Cc1ccc(-n2c(C)cc(-c3csc(N)n3)c2C)cc1 | inactive: 29.5%
CCn1cc([N+](=O)[O-])c(C(=O)Nc2ccn(C34CC5CC(CC(C5)C3)C4)n2)n1 | inconclusive: -46.1%
C=CCNCCOCCOc1ccc(C)cc1Br | inconclusive: -56%
CCOc1cccc2cc(C(=O)N3CCc4ccccc4C3)c(=O)oc12 | inactive: 27.7%
CC1=NN(C(=O)c2ccc(Cn3nc(C)cc3C)o2)C(O)(C(F)(F)F)C1 (configuration not stated) | inactive: 13.2%
CCC(CO)NC1=C([N+](=O)[O-])C(=O)CC(C)(C)C1 (configuration not stated) | inconclusive: -35.1%
COc1cc(Cl)nn(-c2ccccc2)c1=O | inconclusive: -36.6%
O=C(CSc1nnnn1C1CCCCC1)NCc1ccccc1 | inactive: 5.76%

Structure (SMILES) | activity change (PNC), negative = inhibition
CCN(CC)c1ccc2cc(C(=O)Nc3ccccn3)c(=O)oc2c1 | inconclusive: -59.4%
CCCCn1c(SCC(=O)N2CCCc3ccccc32)nc2c1c(=O)n(C)c(=O)n2C | inactive: -12.1%
COC(=O)c1ccc(S(=O)(=O)c2ccccc2)c(N)c1 | inactive: 18%
COc1ccc2nc(C)cc(SCC(=O)N/N=C/c3c(OC)ccc4ccccc34)c2c1 | inconclusive: -31.3%
Cc1ccc(O)c(-c2cc(-c3ccccc3F)[nH]n2)c1 | inactive: 30.9%
O=C1c2ccccc2C(=O)N1CC(O)Cn1nnc2ccccc21 (configuration not stated) | inconclusive: -33%
O=C(CCc1ccccc1)N1CCN(CCO)CC1 | active: -89.1%
Cc1ccc(-n2nnnc2SCC(=O)Nc2ccccc2-c2ccccc2)cc1C | inactive: -0.977%
CCC(NC(=O)c1ccc([N+](=O)[O-])cc1[N+](=O)[O-])c1ccccc1 (configuration not stated) | inactive: 13.3%
O=C(COC(=O)c1cccc(S(=O)(=O)NCc2ccccc2)c1)c1ccccc1 | inactive: 57.2%
Cc1ccc(S(=O)(=O)N2CCN(C3CCC(c4ccccc4)CC3)CC2)cc1 (configuration not stated) | inconclusive: -62.1%
COc1cc(Br)cc(/C=N/c2ncn[nH]2)c1O | inconclusive: -52.3%
CN1C(=O)c2ccc(C(=O)NC3CCCCC3)cc2C1=O | inactive: 16%
O=C(CCC(=O)N1CCN(C2CCCCC2)CC1)Nc1nnc(C(F)(F)F)s1 | inconclusive: -36.9%
CSc1ccc(OC2CCCCC2NS(=O)(=O)c2ccc(Cl)cc2)cc1 (configuration not stated) | inactive: 3.16%
Cc1ccc(S(=O)(=O)/N=c2\sccn2C)cc1 | inactive: 99.2%
O=C(NCCc1ccccc1)C(=O)NCc1ccncc1 | inconclusive: -57%
COc1ccc(OC)c(CNC(=O)CCN2C(=O)COc3ccccc32)c1 | inconclusive: -43.5%
CN1CCN(CC(=O)C23CC4CC(CC(C4)C2)C3)CC1 | inconclusive: -55.7%
COc1cccc(C=NCC(C)N=Cc2cccc(OC)c2O)c1O (configuration not stated) | inconclusive: -42%
O=C(CSc1cn(Cc2ccccc2)c2ccccc12)Nc1nccs1 | inactive: -27.2%
O=C(c1cc2nc(-c3ccccc3)cc(-c3ccccc3)n2n1)N1CCN(C(=O)c2ccco2)CC1 | inconclusive: -33.1%
CC1(C)CC(=O)C(C=NCCc2ccccn2)=C(O)C1 | inactive: 11.9%

Structure (SMILES) | activity change (PNC), negative = inhibition
CC(NC(=O)c1ccccc1NC(=O)CSc1nnnn1C)c1ccccc1 (configuration not stated) | inconclusive: -50.5%
O=C1CCCC2=C1C(c1ccncc1)c1c(nc(SCc3ccccc3Cl)[nH]c1=O)N2 (configuration not stated) | inconclusive: -42%
CCCc1cc(C(=O)Nc2ccc(F)cc2F)no1 | inactive: -24.8%
CCOC(=O)c1ccc(NC(=O)COc2ccc(S(=O)(=O)NC(C)(C)C)cc2)cc1 | inconclusive: -36%
O=C(CN1CCC(n2nnc3cc(F)ccc32)CC1)NCc1ccco1 | active: -118%
COc1ccc(-c2nn3c(C4CCCCC4)nnc3s2)cc1OC | inactive: 24.8%
CCNC(=O)Nn1c(C)nnc1C | inconclusive: -31%
CCN1CCN(C(=O)c2ccc(CN(c3ccccc3)S(=O)(=O)c3ccccc3)cc2)CC1 | inconclusive: -43.4%
CCn1c2ccccc2n2c(=O)c(=O)n(CC(=O)Nc3ccc(C(C)C)cc3)nc12 | inactive: 34.4%
CCOc1ccccc1NC(=O)C(OC(=O)c1ccccc1)c1ccccc1 (configuration not stated) | inactive: -16.1%
Cc1ccc(CN(c2ccc(C(=O)N3CCCC3)cc2)S(C)(=O)=O)cc1 | active: -82.9%
COC(=O)C(C)C1Sc2ccccc2NC1=O (configuration not stated) | inconclusive: -46.3%
Cc1ccc(C(=O)CCC(=O)O)cc1 | inactive: 19.6%
CCOC(=O)N1CCN(C(=O)/C=C/c2ccc3c(c2)OCO3)CC1 | inconclusive: -57.3%
O=C(NN1CCCCC1)c1cccc(COc2ccc(Cl)cc2)c1 | inconclusive: -45.7%
Fc1cccc2sc(Nc3nc4c(F)cccc4s3)nc12 | inactive: 49.1%
O=C(CCN(NC(=O)c1ccccc1)C1=NS(=O)(=O)c2ccccc21)NC1CCCCC1 | inconclusive: -50.9%
CCN(/C=N/c1sc2c(c1C#N)CC(C)(C)NC2(C)C)CC | inconclusive: -61.5%
O=C(Nc1nc2ccccc2c2nc3ccccc3n12)c1ccc(F)cc1 | inconclusive: -32.6%
COc1ccc(C2Oc3ccccc3C3=C2C(c2cccs2)n2ncnc2N3)cc1 (configuration not stated) | active: -112%
O=c1c(/C=C(\O)c2ccc(F)cc2)nc2ccccc2n1-c1ccccc1 | inconclusive: -72%
COc1cc(NC(=O)CN2CCN(S(=O)(=O)c3ccc(C(C)C)cc3)CC2)cc(OC)c1 | inactive: -14.7%
O=C(CN(Cc1ccco1)C(=O)CNS(=O)(=O)c1ccccc1)NC1CCCCC1 | inconclusive: -41.4%
